From paper PMC8031663, “Caveolin‐1‐driven membrane remodelling regulates hnRNPK‐mediated exosomal microRNA sorting in cancer”
These are yes or no findings as the source states them, for the method shown. Binding seen in cells or lysates may run through a third protein. Some entries that bind do so weakly or less than the wild type.

Chains of the proteins cited; added tags and fusions are not shown.
UniProt P35637: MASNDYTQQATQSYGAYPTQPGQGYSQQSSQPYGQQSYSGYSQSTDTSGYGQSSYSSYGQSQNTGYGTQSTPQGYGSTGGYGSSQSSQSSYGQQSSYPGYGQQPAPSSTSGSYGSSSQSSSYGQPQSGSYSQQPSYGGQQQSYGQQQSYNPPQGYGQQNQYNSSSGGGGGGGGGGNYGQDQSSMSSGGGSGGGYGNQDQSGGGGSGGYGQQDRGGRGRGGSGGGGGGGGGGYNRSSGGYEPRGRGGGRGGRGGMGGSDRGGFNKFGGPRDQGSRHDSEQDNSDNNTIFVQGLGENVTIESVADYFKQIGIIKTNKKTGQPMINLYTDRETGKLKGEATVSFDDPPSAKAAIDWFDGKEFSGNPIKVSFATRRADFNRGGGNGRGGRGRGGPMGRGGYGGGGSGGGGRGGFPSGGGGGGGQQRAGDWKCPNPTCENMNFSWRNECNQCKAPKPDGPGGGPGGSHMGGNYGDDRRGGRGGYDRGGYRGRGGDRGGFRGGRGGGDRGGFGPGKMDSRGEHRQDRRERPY
UniProt Q03135: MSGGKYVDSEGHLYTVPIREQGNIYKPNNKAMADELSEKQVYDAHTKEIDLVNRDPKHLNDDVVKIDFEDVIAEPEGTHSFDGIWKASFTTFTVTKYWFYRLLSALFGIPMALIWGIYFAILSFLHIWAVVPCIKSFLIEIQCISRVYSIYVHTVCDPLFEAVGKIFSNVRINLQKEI

Molecular target: heterogeneous nuclear ribonucleoprotein K (human (endogenous in PC3)) (UniProt P61978)
Assay: co-IP; hnRNPK co-immunoprecipitation from PC3-CONT and PC3-CAVIN1 whole cell lysates with Pierce magnetic Protein A/G beads; eluent blotted; non-targeting IgG as negative control

| Substance | binding |
| --- | --- |
| FUS (from UniProt P35637 1-526) | binds |
| YB1 (from UniProt P67809 1-324) | binds |
| caveolin-1 (from UniProt Q03135 1-178) | no binding |
